Reference: the supplement of paper PMC10849652
The other results are listed elsewhere or left out.

The chains behind the UniProt entries cited, without tags or fusion partners. Where a name states a change or a piece, a line headed by the entry shows the natural chain unless it says otherwise.
UniProt Q9NPA8: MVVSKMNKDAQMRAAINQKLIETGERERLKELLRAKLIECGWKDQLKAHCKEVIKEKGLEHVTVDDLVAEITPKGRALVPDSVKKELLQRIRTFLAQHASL
UniProt Q9UBQ5, whole entry, looked up: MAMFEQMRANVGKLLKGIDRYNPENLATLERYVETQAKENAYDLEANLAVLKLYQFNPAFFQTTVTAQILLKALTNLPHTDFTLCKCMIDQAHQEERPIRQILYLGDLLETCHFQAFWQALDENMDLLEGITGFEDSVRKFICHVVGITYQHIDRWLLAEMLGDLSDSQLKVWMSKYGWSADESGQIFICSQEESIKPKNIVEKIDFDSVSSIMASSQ
UniProt Q9NYP7: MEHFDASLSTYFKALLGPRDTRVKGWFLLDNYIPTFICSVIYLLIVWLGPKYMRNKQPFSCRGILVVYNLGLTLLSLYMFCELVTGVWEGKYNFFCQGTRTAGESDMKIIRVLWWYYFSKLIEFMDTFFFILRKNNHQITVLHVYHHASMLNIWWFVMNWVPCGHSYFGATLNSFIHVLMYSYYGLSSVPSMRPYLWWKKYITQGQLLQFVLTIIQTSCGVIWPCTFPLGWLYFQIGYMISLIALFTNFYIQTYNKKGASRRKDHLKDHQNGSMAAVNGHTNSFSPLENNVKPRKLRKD
UniProt P55010, whole entry, looked up: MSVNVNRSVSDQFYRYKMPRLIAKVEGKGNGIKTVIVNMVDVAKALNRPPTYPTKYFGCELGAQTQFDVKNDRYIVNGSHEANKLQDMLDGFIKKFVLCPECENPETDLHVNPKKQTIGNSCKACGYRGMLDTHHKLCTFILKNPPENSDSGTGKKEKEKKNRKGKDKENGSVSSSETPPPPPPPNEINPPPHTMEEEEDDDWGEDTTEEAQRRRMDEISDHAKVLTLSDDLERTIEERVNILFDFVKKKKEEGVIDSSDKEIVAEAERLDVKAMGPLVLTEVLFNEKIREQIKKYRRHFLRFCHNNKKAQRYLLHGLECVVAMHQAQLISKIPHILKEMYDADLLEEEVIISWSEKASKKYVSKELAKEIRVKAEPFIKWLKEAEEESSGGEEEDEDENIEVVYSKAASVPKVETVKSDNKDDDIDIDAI
UniProt P23588, whole entry, looked up: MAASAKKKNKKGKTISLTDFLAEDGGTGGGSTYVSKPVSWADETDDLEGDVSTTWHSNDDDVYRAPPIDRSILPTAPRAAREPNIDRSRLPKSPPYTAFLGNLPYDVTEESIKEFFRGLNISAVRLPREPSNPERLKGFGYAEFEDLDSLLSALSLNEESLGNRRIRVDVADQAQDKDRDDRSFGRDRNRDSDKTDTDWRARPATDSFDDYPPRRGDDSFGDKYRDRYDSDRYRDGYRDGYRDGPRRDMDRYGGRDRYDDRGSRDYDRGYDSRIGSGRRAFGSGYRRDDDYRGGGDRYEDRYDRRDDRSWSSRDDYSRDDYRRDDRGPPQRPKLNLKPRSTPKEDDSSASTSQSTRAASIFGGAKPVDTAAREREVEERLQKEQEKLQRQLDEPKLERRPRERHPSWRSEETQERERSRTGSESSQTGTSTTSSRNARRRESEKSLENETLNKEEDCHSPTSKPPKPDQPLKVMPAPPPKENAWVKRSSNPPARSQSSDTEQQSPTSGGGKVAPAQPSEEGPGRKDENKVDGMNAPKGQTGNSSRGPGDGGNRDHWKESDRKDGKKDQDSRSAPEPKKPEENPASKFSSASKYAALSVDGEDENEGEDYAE
UniProt P38919, whole entry, looked up: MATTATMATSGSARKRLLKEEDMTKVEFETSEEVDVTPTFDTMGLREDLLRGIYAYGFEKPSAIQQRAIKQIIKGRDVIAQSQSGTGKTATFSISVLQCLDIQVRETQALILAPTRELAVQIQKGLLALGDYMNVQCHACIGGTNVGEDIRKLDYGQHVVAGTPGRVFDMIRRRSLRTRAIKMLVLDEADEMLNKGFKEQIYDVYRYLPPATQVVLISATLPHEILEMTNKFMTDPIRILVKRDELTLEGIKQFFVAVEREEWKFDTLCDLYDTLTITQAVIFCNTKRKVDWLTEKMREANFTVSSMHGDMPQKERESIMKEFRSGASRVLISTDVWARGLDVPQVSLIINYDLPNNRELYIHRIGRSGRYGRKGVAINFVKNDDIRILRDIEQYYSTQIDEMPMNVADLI
UniProt P78344: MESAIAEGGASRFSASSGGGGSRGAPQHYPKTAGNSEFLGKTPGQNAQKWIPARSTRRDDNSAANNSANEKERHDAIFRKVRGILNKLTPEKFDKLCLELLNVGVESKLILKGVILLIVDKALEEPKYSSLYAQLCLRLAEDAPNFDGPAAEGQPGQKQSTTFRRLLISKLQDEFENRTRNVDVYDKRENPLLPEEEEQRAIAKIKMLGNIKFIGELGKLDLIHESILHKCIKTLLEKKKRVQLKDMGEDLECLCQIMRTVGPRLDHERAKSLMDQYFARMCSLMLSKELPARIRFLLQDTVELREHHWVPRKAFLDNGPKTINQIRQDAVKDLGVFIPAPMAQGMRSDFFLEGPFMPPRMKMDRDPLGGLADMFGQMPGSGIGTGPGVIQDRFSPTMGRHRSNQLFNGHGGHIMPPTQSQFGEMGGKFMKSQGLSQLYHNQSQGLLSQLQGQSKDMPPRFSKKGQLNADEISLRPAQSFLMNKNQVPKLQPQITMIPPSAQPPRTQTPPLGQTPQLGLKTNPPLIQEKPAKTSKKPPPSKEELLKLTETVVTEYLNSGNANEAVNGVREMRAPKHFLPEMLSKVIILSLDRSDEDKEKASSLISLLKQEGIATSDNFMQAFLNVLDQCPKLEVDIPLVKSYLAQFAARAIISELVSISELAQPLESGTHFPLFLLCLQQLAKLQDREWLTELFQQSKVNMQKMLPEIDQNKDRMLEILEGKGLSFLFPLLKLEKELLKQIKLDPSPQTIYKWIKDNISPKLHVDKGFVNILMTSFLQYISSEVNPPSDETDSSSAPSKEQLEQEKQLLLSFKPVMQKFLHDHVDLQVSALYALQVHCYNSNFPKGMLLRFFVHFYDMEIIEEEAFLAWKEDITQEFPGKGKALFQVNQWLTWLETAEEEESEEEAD
UniProt P29692: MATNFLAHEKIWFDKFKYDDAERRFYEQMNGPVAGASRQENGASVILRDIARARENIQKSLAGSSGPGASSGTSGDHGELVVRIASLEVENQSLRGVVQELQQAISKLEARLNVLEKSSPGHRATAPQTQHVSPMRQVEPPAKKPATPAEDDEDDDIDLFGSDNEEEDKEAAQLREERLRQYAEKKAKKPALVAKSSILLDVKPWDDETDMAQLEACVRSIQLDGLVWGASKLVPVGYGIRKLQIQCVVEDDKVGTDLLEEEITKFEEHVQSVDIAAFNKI
UniProt P24534: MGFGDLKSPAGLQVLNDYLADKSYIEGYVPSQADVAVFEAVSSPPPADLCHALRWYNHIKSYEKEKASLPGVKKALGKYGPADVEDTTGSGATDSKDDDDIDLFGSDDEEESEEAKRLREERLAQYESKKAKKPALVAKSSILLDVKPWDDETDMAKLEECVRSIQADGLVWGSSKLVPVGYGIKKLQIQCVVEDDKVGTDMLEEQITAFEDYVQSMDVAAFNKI
UniProt Q9H9T3: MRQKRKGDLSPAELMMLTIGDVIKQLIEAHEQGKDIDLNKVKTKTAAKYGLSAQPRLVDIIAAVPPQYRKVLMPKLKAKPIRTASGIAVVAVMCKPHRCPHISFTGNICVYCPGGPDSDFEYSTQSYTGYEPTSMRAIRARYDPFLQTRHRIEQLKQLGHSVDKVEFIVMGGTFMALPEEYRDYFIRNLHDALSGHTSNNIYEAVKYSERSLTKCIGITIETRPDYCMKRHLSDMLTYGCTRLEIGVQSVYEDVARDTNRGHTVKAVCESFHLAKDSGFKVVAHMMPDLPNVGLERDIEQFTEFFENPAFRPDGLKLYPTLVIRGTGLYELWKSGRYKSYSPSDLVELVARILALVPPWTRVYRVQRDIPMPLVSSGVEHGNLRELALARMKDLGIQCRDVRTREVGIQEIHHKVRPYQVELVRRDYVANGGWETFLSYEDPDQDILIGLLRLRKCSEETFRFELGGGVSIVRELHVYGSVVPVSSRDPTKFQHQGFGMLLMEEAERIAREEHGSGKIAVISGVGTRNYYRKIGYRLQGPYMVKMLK
UniProt Q0PNE2: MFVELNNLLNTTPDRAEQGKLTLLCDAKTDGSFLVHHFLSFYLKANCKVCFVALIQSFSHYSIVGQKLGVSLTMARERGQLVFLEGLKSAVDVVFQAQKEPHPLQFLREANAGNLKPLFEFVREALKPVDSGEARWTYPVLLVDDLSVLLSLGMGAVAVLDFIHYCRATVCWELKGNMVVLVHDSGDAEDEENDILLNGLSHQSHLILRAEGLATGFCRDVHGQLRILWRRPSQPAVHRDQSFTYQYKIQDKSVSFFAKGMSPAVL
UniProt Q14240, whole entry, looked up: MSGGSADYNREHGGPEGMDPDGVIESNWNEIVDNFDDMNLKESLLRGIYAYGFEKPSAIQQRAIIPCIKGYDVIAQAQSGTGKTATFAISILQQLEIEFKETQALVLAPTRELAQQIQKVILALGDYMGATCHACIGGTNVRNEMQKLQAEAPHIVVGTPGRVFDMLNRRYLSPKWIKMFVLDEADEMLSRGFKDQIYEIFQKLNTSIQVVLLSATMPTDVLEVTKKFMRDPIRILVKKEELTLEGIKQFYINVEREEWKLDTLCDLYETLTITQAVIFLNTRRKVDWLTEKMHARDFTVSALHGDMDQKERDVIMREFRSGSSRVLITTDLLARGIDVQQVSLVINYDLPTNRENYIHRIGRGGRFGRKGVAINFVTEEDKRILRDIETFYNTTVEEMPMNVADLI
UniProt O60841: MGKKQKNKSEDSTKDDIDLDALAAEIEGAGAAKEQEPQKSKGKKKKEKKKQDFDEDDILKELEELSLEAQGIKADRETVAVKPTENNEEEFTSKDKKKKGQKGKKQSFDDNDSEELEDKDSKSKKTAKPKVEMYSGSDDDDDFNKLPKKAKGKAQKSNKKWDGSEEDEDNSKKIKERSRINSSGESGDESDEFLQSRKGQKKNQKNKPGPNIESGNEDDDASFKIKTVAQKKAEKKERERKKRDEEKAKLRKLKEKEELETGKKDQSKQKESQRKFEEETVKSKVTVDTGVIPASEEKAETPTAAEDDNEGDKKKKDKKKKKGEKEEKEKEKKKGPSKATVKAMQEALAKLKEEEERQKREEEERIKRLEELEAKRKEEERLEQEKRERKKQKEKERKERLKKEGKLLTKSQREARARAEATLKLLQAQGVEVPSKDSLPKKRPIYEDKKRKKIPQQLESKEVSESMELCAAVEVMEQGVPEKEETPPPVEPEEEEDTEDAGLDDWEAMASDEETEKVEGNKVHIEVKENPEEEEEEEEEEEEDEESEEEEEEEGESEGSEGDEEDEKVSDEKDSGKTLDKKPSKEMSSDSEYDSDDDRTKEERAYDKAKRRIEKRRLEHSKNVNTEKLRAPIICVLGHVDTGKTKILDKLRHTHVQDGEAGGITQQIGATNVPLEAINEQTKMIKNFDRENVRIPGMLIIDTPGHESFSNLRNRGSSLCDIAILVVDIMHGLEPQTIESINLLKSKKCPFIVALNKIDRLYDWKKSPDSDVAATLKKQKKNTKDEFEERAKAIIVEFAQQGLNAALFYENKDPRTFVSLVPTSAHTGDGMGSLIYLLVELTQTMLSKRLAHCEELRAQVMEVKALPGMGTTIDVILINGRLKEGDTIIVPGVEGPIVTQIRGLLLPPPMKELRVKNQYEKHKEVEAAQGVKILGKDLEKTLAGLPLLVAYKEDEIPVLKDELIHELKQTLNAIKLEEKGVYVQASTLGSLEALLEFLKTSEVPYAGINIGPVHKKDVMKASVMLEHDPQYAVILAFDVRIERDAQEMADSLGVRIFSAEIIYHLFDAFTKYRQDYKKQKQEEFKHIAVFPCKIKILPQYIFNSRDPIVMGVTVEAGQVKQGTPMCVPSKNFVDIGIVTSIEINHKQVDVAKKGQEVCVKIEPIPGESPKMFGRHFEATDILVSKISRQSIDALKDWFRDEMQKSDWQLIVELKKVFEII
UniProt Q9H223: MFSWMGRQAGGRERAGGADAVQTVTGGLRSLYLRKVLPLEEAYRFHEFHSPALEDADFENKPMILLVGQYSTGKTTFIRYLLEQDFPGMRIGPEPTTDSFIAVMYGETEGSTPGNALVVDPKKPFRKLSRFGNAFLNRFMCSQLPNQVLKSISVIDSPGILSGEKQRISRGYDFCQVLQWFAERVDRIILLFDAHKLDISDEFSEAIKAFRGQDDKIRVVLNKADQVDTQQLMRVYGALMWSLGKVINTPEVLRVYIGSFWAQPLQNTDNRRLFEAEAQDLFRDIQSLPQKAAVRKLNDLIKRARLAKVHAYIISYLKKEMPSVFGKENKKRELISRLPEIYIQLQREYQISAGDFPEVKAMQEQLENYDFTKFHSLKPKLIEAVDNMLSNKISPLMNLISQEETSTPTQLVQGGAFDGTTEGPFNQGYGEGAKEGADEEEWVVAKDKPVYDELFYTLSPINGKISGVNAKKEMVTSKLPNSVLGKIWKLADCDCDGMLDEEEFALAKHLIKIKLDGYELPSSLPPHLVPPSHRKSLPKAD

compound: NC(=O)Nc1cc(-c2cccc(F)c2)sc1C(=O)N[C@H]1CCCNC1; assay: log2 fold change, soluble protein after heating vs DMSO (PISA); higher = thermal stabilisation; K562 cells, 10 uM, 30 min; active = over 0.2 and 3.5 SD of the protein, either way, in both replicates (recomputed)
Method in brief: (§1)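 Soluble protein was defined as the supernatant after 21,000xg for 90 min. It came from K562 cells at 2×10^6 cells/mL given 10 μM compound for 30 min, heated in aliquots for 3 min across 48°C-58°C, pooled, and extracted in PBS with 0.5% NP-40 at 4°C, and was quantified by TMTpro 16plex LC-MS/MS with equalised channel sums. Thermal stability against control samples, from duplicates, is reported as log2 fold change.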

log2 fold change, inactive:
ENY2 (UniProt Q9NPA8) -0.017
EGLN1 (UniProt Q9GZT9) 0.095
EIF3K (UniProt Q9UBQ5) 0.057
EED, A0A5F9ZI63 0.03
ELOVL5 isoform 2 (UniProt Q9NYP7) -0.07
ENO1 isoform 2 (UniProt P06733) 0.015
EIF5 (UniProt P55010) -0.047
EMC8 (UniProt O43402) 0.031
EHHADH (UniProt Q08426) -0.051
EIF2AK2 (UniProt P19525) 0.037
EIF4B (UniProt P23588) -0.003
EIF4A3 (UniProt P38919) -0.082
EMD (UniProt P50402) -0.012
EIF4ENIF1 isoform 3 (UniProt Q9NRA8) -0.045
EIF4G2 (UniProt P78344) 0.017
EIF4A1 (UniProt P60842) 0.148
EEF1D isoform 2 (UniProt P29692) -0.02
EEF1B2 (UniProt P24534) 0.012
ELP3 (UniProt Q9H9T3) -0.049
ENGASE (UniProt Q8NFI3) 0.002
ELP4 (UniProt Q96EB1) -0.031
ELP4 isoform 3 (UniProt Q96EB1) 0.001
ELP6 (UniProt Q0PNE2) -0.003
ENOPH1 (UniProt Q9UHY7) 0.008
ELOF1 (UniProt P60002) -0.158
EI24 (UniProt O14681) 0.044
EIF4A2 isoform 2 (UniProt Q14240) 0.005
EML3 isoform 2 (UniProt Q32P44) -0.155
EIF3H (UniProt O15372) -0.007
EIF5B (UniProt O60841) 0.007
ELP5 isoform 4 (UniProt Q8TE02) -0.022
EHD4 (UniProt Q9H223) -0.022
EIF3I (UniProt Q13347) -0.034

compound: NC(=O)c1cnc(N[C@@H]2CCCC[C@@H]2N)nc1Nc1cccc(-n2nccn2)c1; assay: as above
Method in brief: as §1

log2 fold change, inactive:
ENY2 (UniProt Q9NPA8) -0.011
EGLN1 (UniProt Q9GZT9) -0.016
EIF3K (UniProt Q9UBQ5) -0.05
EED, A0A5F9ZI63 0.053
ELOVL5 isoform 2 (UniProt Q9NYP7) 0.001
ENO1 isoform 2 (UniProt P06733) 0.042
EIF5 (UniProt P55010) -0.002
EMC8 (UniProt O43402) -0.018
EHHADH (UniProt Q08426) -0.022
EIF2AK2 (UniProt P19525) -0.384
EIF4B (UniProt P23588) 0.009
EIF4A3 (UniProt P38919) -0.055
EMD (UniProt P50402) -0.064
EIF4ENIF1 isoform 3 (UniProt Q9NRA8) 0.005
EIF4G2 (UniProt P78344) -0.028
EIF4A1 (UniProt P60842) -0.08
EEF1D isoform 2 (UniProt P29692) -0.06
EEF1B2 (UniProt P24534) -0.112
ELP3 (UniProt Q9H9T3) 0.015
ENGASE (UniProt Q8NFI3) -0.099
ELP4 (UniProt Q96EB1) 0.073
ELP4 isoform 3 (UniProt Q96EB1) 0.037
ELP6 (UniProt Q0PNE2) -0.041
ENOPH1 (UniProt Q9UHY7) -0.07
ELOF1 (UniProt P60002) 0.061
EI24 (UniProt O14681) -0.077
EIF4A2 isoform 2 (UniProt Q14240) -0.053
EML3 isoform 2 (UniProt Q32P44) 0.001
EIF3H (UniProt O15372) -0.041
EIF5B (UniProt O60841) -0.06
ELP5 isoform 4 (UniProt Q8TE02) -0.08
EHD4 (UniProt Q9H223) 0.007
EIF3I (UniProt Q13347) -0.082

compound: NC1(c2ccc(-c3nc4ccn5c(=O)[nH]nc5c4cc3-c3ccccc3)cc2)CCC1; assay: as above
Method in brief: as §1

log2 fold change, inactive:
ENY2 (UniProt Q9NPA8) 0.011
EGLN1 (UniProt Q9GZT9) -0.043
EIF3K (UniProt Q9UBQ5) -0.078
EED, A0A5F9ZI63 0.037
ELOVL5 isoform 2 (UniProt Q9NYP7) -0.194
ENO1 isoform 2 (UniProt P06733) -0.006
EIF5 (UniProt P55010) -0.045
EMC8 (UniProt O43402) -0.052
EHHADH (UniProt Q08426) -0.042
EIF2AK2 (UniProt P19525) 0.36
EIF4B (UniProt P23588) 0.035
EIF4A3 (UniProt P38919) 0.025
EMD (UniProt P50402) -0.068
EIF4ENIF1 isoform 3 (UniProt Q9NRA8) -0.223
EIF4G2 (UniProt P78344) 0.139
EIF4A1 (UniProt P60842) -0.029
EEF1D isoform 2 (UniProt P29692) -0.034
EEF1B2 (UniProt P24534) -0.035
ELP3 (UniProt Q9H9T3) -0.054
ENGASE (UniProt Q8NFI3) -0.061
ELP4 (UniProt Q96EB1) -0.028
ELP4 isoform 3 (UniProt Q96EB1) -0.013
ELP6 (UniProt Q0PNE2) -0.035
ENOPH1 (UniProt Q9UHY7) -0.22
ELOF1 (UniProt P60002) 0.233
EI24 (UniProt O14681) 0.026
EIF4A2 isoform 2 (UniProt Q14240) -0.049
EML3 isoform 2 (UniProt Q32P44) 0.083
EIF3H (UniProt O15372) -0.06
EIF5B (UniProt O60841) 0.019
ELP5 isoform 4 (UniProt Q8TE02) -0.06
EHD4 (UniProt Q9H223) -0.073
EIF3I (UniProt Q13347) -0.086
